The list shows a part of the results.
Target: T1, OsSMF1 (Oryza sativa, UniProt Q6ZLB0 1-436)
T1 sequence: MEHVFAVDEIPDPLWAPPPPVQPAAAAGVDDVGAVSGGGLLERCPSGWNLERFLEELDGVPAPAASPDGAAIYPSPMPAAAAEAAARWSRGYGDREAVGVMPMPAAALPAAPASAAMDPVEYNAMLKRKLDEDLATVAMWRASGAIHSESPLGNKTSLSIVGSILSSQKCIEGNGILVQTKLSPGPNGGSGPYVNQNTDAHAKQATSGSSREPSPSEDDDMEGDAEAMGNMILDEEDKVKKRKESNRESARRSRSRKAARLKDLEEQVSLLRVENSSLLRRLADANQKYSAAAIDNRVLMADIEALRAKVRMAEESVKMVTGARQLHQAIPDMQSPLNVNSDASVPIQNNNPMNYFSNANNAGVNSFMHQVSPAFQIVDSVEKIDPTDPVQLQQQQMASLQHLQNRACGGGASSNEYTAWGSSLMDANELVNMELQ
Test: protein-binding microarray (RPBM); PBS, 2% BSA, 51.3 ng/ul salmon testes DNA, 50 uM zinc acetate, 200 nM TF, 25 C, 1 h; high values mean tight binding
Settings: protein: recombinant; tags: N-terminal polyhistidine and DsRed monomer fusion (pET32a); chain copies: 2; label: CyDye5-dUTP incorporated in the synthesized complementary strand; 3' TTTTT single-stranded linker to array surface; dsDNA, one strand shown
How it was run: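 The binding signal is fluorescence intensity per array feature (arbitrary units). Readings came from an Axon 4000B scanner after a washed, 2% BSA-blocked, double-stranded custom Agilent array had been incubated for 1 h at 25 °C with 200 nM protein and 50 µM zinc acetate. The protein was a Ni–NTA-purified transcription factor fused N-terminally to polyhistidine and DsRed, expressed in E. coli BL21-CodonPlus.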

Sequence	binding signal
CATTATAAATAACGTTGAATCCACGCGTTTGTGATGTGGCCGGAGTCACCTAGTGCAG	7800 fluorescence intensity (a.u.)
TGGTGGTGGTGGTGGGCCTTCCCGTCGTCGTCTTCGACTTCGGAGTCACCTAGTGCAG	3480 fluorescence intensity (a.u.)
GTAGTACTCCAGTACACTGTAATCTAATACTGCTAGAAGTCGGAGTCACCTAGTGCAG	35400 fluorescence intensity (a.u.)
AGGTGGGTCCACGTCGCCGACCCGCACCACATGGCCCACGCGGAGTCACCTAGTGCAG	6140 fluorescence intensity (a.u.)
TGTAGAGGTCTCATAAACCACCATGACCTTGCTGCTTCACCGGAGTCACCTAGTGCAG	3320 fluorescence intensity (a.u.)
TGATTAAACAAAGTGTGCAAGGCGTGTCTAGTCAGTAGTCCGGAGTCACCTAGTGCAG	3980 fluorescence intensity (a.u.)
GTGTGACAGTGTGACAGATGTGCATCATGTGGGTCACAAACGGAGTCACCTAGTGCAG	6110 fluorescence intensity (a.u.)
AATGATATTGTTGTCCAACATGACGGTATCAGACATTGATCGGAGTCACCTAGTGCAG	3440 fluorescence intensity (a.u.)
ACCGTCGGTGTTGGATCGCGCTCCTCTGACGTAAAGTCAGCGGAGTCACCTAGTGCAG	4080 fluorescence intensity (a.u.)
GGCATGCCGGTGCCACCTCCTCACCCACGGCACCATCCCACGGAGTCACCTAGTGCAG	4390 fluorescence intensity (a.u.)
AAACCAGATGCACGTGGGTACTCGTCATTTCTAATTGGTCCGGAGTCACCTAGTGCAG	5540 fluorescence intensity (a.u.)
ATTTGGAGCGTCATGGGCTAGTTCCGCTCGGGACTAGTTCCGGAGTCACCTAGTGCAG	4390 fluorescence intensity (a.u.)
TTTGCAAAGCGAGAATTCCACACAGGTTACACCAGTATATCGGAGTCACCTAGTGCAG	3360 fluorescence intensity (a.u.)
GAATTGAGTGGTTGGTTAGGTTTCTGAATGGTGGTAAGCACGGAGTCACCTAGTGCAG	3150 fluorescence intensity (a.u.)
ATATGAGGTAGATGCATGACTCAACCACTAAACTTAGGACCGGAGTCACCTAGTGCAG	5420 fluorescence intensity (a.u.)
AAACAAGTACAAAGCTGCAGTCGCTGTTGATAAAGAGTTACGGAGTCACCTAGTGCAG	19500 fluorescence intensity (a.u.)
TAAAAGGCATACCAACTTTCAGTGCCTATGAACTAATCTGCGGAGTCACCTAGTGCAG	31200 fluorescence intensity (a.u.)
CTAGTAGTGGCTCTACCACACCTACATCACTTGCCTCGAGCGGAGTCACCTAGTGCAG	3280 fluorescence intensity (a.u.)
AACGACCGCCACGTCGCCTCCAATTCATCCCTCCCAGTGGCGGAGTCACCTAGTGCAG	26400 fluorescence intensity (a.u.)
GTCAGAGACACAGAAGCAAGCTGCATGCCAGCCTAACCCGCGGAGTCACCTAGTGCAG	6270 fluorescence intensity (a.u.)
GGCTAAAATATAATGTATTTTAAGATAACATTTTACACGTCGGAGTCACCTAGTGCAG	3170 fluorescence intensity (a.u.)

Rewritten in markdown: entries from further up

| Sequence | binding signal |
| --- | --- |
| TGTAGAGGTCTCATAAACCACCATGACCTTGCTGCTTCACCGGAGTCACCTAGTGCAG | 3320 fluorescence intensity (a.u.) |
| TGATTAAACAAAGTGTGCAAGGCGTGTCTAGTCAGTAGTCCGGAGTCACCTAGTGCAG | 3980 fluorescence intensity (a.u.) |
| GTGTGACAGTGTGACAGATGTGCATCATGTGGGTCACAAACGGAGTCACCTAGTGCAG | 6110 fluorescence intensity (a.u.) |
| AATGATATTGTTGTCCAACATGACGGTATCAGACATTGATCGGAGTCACCTAGTGCAG | 3440 fluorescence intensity (a.u.) |
| ACCGTCGGTGTTGGATCGCGCTCCTCTGACGTAAAGTCAGCGGAGTCACCTAGTGCAG | 4080 fluorescence intensity (a.u.) |
| GGCATGCCGGTGCCACCTCCTCACCCACGGCACCATCCCACGGAGTCACCTAGTGCAG | 4390 fluorescence intensity (a.u.) |
| AAACCAGATGCACGTGGGTACTCGTCATTTCTAATTGGTCCGGAGTCACCTAGTGCAG | 5540 fluorescence intensity (a.u.) |
| ATTTGGAGCGTCATGGGCTAGTTCCGCTCGGGACTAGTTCCGGAGTCACCTAGTGCAG | 4390 fluorescence intensity (a.u.) |
| TTTGCAAAGCGAGAATTCCACACAGGTTACACCAGTATATCGGAGTCACCTAGTGCAG | 3360 fluorescence intensity (a.u.) |
| GAATTGAGTGGTTGGTTAGGTTTCTGAATGGTGGTAAGCACGGAGTCACCTAGTGCAG | 3150 fluorescence intensity (a.u.) |

The results go on:

Sequence	binding signal
TTTCCTCTACATAAGTTTCCACGTATACACTCGAGCAATACGGAGTCACCTAGTGCAG	9530 fluorescence intensity (a.u.)
CGCTCGTCGCCTCCACTCCGATCGCCGCCGCGCGGCAGGGCGGAGTCACCTAGTGCAG	30600 fluorescence intensity (a.u.)
GTTGAATGAGTTTGACTACGTGGCATACACATTGGATATACGGAGTCACCTAGTGCAG	13800 fluorescence intensity (a.u.)
TATATATATGGTCCTTCGTGTACATGTTTCCCTGATTTTCCGGAGTCACCTAGTGCAG	3790 fluorescence intensity (a.u.)
CTTGGATCCAACGGCCACGGCTCTCTCATCGCCGCGCCCCCGGAGTCACCTAGTGCAG	46100 fluorescence intensity (a.u.)
GGTAGCAACTGCAAGGGGCAGTTGGCTGGAGCTCGGTGATCGGAGTCACCTAGTGCAG	4370 fluorescence intensity (a.u.)
AATACCTCCTCCTATACGCTATAATTGGCATGTGTCACGTCGGAGTCACCTAGTGCAG	5430 fluorescence intensity (a.u.)
GATGCTGACAGTCAGGCAGGCCTCTACATGTGACAAGGCTCGGAGTCACCTAGTGCAG	5560 fluorescence intensity (a.u.)
ATGTTCAGATCTCATGATCTCATCATCACAAATCAAGTCCCGGAGTCACCTAGTGCAG	3750 fluorescence intensity (a.u.)
TATGTGGTTCTTCGTCATCACACGTTCAGTTCTATCCAAACGGAGTCACCTAGTGCAG	4780 fluorescence intensity (a.u.)
TTGTATGTTTGTGGAGTGATATATTACATTTTAATCTATCCGGAGTCACCTAGTGCAG	28000 fluorescence intensity (a.u.)
GGCTGAGTTTTCTGTGTGTTGGCATCTTGCAACTGTCGAGCGGAGTCACCTAGTGCAG	4180 fluorescence intensity (a.u.)
TGGTGGTCCTTAAACTTATAGGGTTATGTCATATAGGTCTCGGAGTCACCTAGTGCAG	3430 fluorescence intensity (a.u.)
AAACAGCTCAAGTTGAGGCCAGGTGGACGTGCAGCCACGCCGGAGTCACCTAGTGCAG	3790 fluorescence intensity (a.u.)
AAGTACATCATGACACCGATCTCACTTAACCAACACCGTGCGGAGTCACCTAGTGCAG	4410 fluorescence intensity (a.u.)
GCGGCTGTACAACACACGATCCAATGCACCGCGTCGTCACCGGAGTCACCTAGTGCAG	4160 fluorescence intensity (a.u.)
TCTTTGTGCTGAACCGAGCCGTCATGGTCACCAGTTCCAGCGGAGTCACCTAGTGCAG	3660 fluorescence intensity (a.u.)
CCCATCAACGAGCCCTCGATGACACGTACTCCCTCCATTACGGAGTCACCTAGTGCAG	9840 fluorescence intensity (a.u.)
GCAGGCTCGCCTTGCACCACGTAGCCTTGCAGCCGCCACACGGAGTCACCTAGTGCAG	4120 fluorescence intensity (a.u.)
CAGGAAAGATGTGCCACGTATACTGAGTTTGACTCGTTCACGGAGTCACCTAGTGCAG	10600 fluorescence intensity (a.u.)
GGCGGCGTCGTCTCTTTCTCTCTCTCTCTGTGCATGGTGGCGGAGTCACCTAGTGCAG	3510 fluorescence intensity (a.u.)
